# Measurements: the supplement of paper PMC8104966
# Values joined by “and” are separate entries in the source; they are usually repeats but may differ in a detail not shown here. Equal values may be shown once. Some of the results follow. This data set is noisy: repeats of one test often differ as much as different tests do.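 U2OS cells expressing ACE2 were combined with U2OS cells expressing full-length spike, and imaging quantified fusion as the fraction of nuclei displaying both cell types' fluorescent markers. Non-toxic compounds with a fusion z-score under -3, i.e., over three standard deviations below the plate's DMSO wells, are called inhibitory hits.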
# Test system: U2OS ACE2 x SARS-CoV-2 spike co-culture
# Experiment: cell-cell fusion (fraction fused) z-score vs plate DMSO control; higher = more fusion
# Conditions: 30 µM; 5 h; toxicity class: non-toxic, passed QC
row,Compound,cell-cell fusion (z-score)
1,COCCOc1cc2nc[nH]c(=O)c2cc1OCCOC,inactive: 1.67
2,CC(=O)NCCc1c[nH]c2ccccc12 [N-Acetyltryptamine],inactive: 2.75
3,COC(=O)C1=CO[C@@H](O[C@@H]2O[C@H](CO)[C@@H](O)[C@H](O)[C@H]2O)[C@H]2C1C(=O)C[C@@H]2C (some centres undefined),inactive: 2.29
4,C[C@@H](CN1CCC(Cc2ccccc2)CC1)[C@@H](O)c1ccc(O)cc1.Cl [Ro 25-6981 hydrochloride],inactive: 1.46
5,C[C@]12CC[C@H]3[C@@](O)(C1)OC(O2)[C@]3(COC(=O)c1ccccc1)O[C@@H]1O[C@H](CO)[C@@H](O)[C@H](O)[C@H]1O,inactive: 2.31
6,COc1ccc(CC(C)(C)NC[C@H](O)c2cc(O)cc3c2OCC(=O)N3)cc1.Cl [BI 1744 hydrochloride],inactive: -0.583
7,C[C@]12CCC(=O)C=C1CCC1C2[C@@H](O)C[C@@]2(C)C1CC[C@]2(O)C(=O)CO (some centres undefined),inactive: 0.588
8,O=c1ccn([C@@H]2O[C@H](CO)[C@@H](O)[C@H]2O)c(=O)[nH]1 [Uridine],inactive: 3.61
9,Nc1ccn([C@@H]2O[C@H](CO)[C@@H](O)C2(F)F)c(=O)n1 [Gemcitabine],inactive: 1.95
10,C=CCN1CC[C@]23CCCCC2[C@H]1Cc1ccc(O)cc13.O=C(O)C(O)C(O)C(=O)O (some centres undefined) [Levallorphan tartrate],inactive: 1.99
11,N[C@@H]1CCCC[C@H]1N.O=C1[O][Pt][O]C1=O [Oxaliplatin (Eloxatin)],inactive: 2.25
12,C[C@](Cc1ccc(O)c(O)c1)(NN)C(=O)O [S-(-)-Carbidopa],inactive: 2.02
13,N#CCNC(=O)c1ccc(-c2ccnc(Nc3ccc(N4CCOCC4)cc3)n2)cc1,inactive: 0.489 and inactive: -1.83
14,CC(=O)NCCCS(=O)(=O)[O-].CC(=O)NCCCS(=O)(=O)[O-].[Ca+2],inactive: 2.08
15,CN1C(=O)C(Cc2c[nH]c3ccccc23)NC1=S (centres undefined) [Necrostatin-1],inactive: 1.13
16,O=C([O-])c1ccccc1O.[Na+],inactive: 0.527
17,CN(C)C(=O)[C@H](O)[C@H](Cc1ccccc1)NC(=O)c1cc2cc(Cl)ccc2[nH]1,inactive: -0.726
18,C[C@H](CCC(=O)O)[C@H]1CC[C@H]2[C@@H]3[C@H](O)C[C@@H]4C[C@H](O)CC[C@]4(C)[C@H]3C[C@H](O)[C@]12C [Cholic Acid],inactive: 1.64
19,C=C[C@](C)(O)CCC=C(C)C,inactive: 1.4
20,COc1ccc2c(c1)CCC1C2CC[C@@]2(C)C1CC[C@@H]2NCCCCCCN1C(=O)CCC1=O (some centres undefined),inactive: 2.33
21,CN1[C@@H]2CCC[C@H]1C[C@@H](NC(=O)c1nn(C)c3ccccc13)C2.Cl [Granisetron hydrochloride],inactive: 2.71
22,CC1Cc2ccccc2N1NC(=O)c1ccc(Cl)c(S(N)(=O)=O)c1 (centres undefined),inactive: 2.06

# Part of the list above in a different format:
row | Compound | cell-cell fusion (z-score)
15 | CN1C(=O)C(Cc2c[nH]c3ccccc23)NC1=S (centres undefined) [Necrostatin-1] | inactive: 1.13
17 | CN(C)C(=O)[C@H](O)[C@H](Cc1ccccc1)NC(=O)c1cc2cc(Cl)ccc2[nH]1 | inactive: -0.726

# Going on with the list.

row,Compound,cell-cell fusion (z-score)
1,N[C@@H]1CONC1=O,inactive: 1.47
2,N[C@@H]1CONC1=O [D-Cycloserine],inactive: 2.34
3,CCCCCCCCCCCCCCCC[N+](C)(C)CCN(Cc1ccc(OC)cc1)c1ncccn1.[Br-],active: -6.77
4,COC(=O)CC1C(C)(C)C(OC(C)=O)[C@@H]2[C@@H](OC(C)=O)[C@]34O[C@@]2(O)[C@]1(C)C3CC[C@]1(C)C4=CC(=O)O[C@H]1c1ccoc1 (some centres undefined),inactive: 1.84
5,CC[C@H]1OC(=O)[C@H](C)[C@@H](O[C@H]2C[C@@](C)(OC)[C@@H](O)[C@H](C)O2)[C@H](C)[C@@H](O[C@@H]2O[C@H](C)C[C@H](N(C)C)[C@H]2O)[C@](C)(O)C[C@@H](C)C(=O)[C@H](C)[C@@H](O)[C@]1(C)O [Erythromycin],inactive: 2.22
6,COc1cc2c(cc1OC)-c1c(oc3c4c(ccc3c1=O)OC(C(C)C)C4)CO2 (centres undefined),inactive: 1.59
7,Cl.c1ccc2nc(C3=NCCN3)ccc2c1 [BU224 hydrochloride],inactive: 2.58
8,NCCCC[C@H](N[C@@H](CCc1ccccc1)C(=O)O)C(=O)N1CCC[C@H]1C(=O)O,inactive: -0.78
9,CCCNC(C)C(=O)Nc1ccccc1C.Cl (centres undefined) [Prilocaine hydrochloride],inactive: 0.734
10,NC[C@@H]1O[C@H](O[C@H]2[C@@H](O)[C@H](O[C@@H]3[C@@H](O)[C@H](N)C[C@H](N)[C@H]3O[C@H]3O[C@H](CO)[C@@H](O)[C@H](O)[C@H]3N)O[C@@H]2CO)[C@H](N)[C@@H](O)[C@@H]1O.O=S(=O)(O)O [Paromomycin Sulfate],inactive: 0.465
11,C[C@@H]1O[C@@H](OC[C@H]2OC(Oc3c(-c4ccc(OCCO)c(OCCO)c4)oc4cc(OCCO)cc(O)c4c3=O)[C@H](O)[C@@H](O)[C@@H]2O)[C@H](O)[C@H](O)[C@H]1O (some centres undefined),inactive: 0.235
12,Cc1cc2c(F)c(Oc3ncnn4cc(OC[C@@H](C)OC(=O)[C@H](C)N)c(C)c34)ccc2[nH]1,inactive: -1.6
13,Cc1ccc(Nc2c(F)cccc2Cl)c(CC(=O)O)c1,inactive: 2.59
14,CCOc1nc2cccc(C(=O)O)c2n1Cc1ccc(-c2ccccc2-c2nn[nH]n2)cc1 [Candesartan],inactive: 1.47
15,[Li][Cl] [Lithium Chloride],inactive: 0.911
16,CO[C@H]1C[C@@H]2CC[C@@H](C)[C@@](O)(O2)C(=O)C(=O)N2CCCC[C@H]2C(=O)O[C@H]([C@H](C)C[C@@H]2CC[C@@H](OC(=O)C(C)(CO)CO)[C@H](OC)C2)CC(=O)[C@H](C)/C=C(\C)[C@@H](O)[C@@H](OC)C(=O)[C@H](C)C[C@H](C)/C=C/C=C/C=C/1C [Temsirolimus],inactive: 1.85
17,CCOC(=O)[C@H](CCc1ccccc1)N[C@@H](C)C(=O)N1Cc2cc(OC)c(OC)cc2C[C@H]1C(=O)O.Cl [Moexipril HCl],inactive: 1.78
18,CN1CCN(CC(=O)N2c3ccccc3C(=O)Nc3cccnc32)CC1.Cl.Cl,inactive: 2.34
19,Clc1ccc(CSC(Cn2ccnc2)c2ccc(Cl)cc2Cl)cc1.O=[N+]([O-])O (centres undefined),inactive: 2.48
20,O.O.O.O.O=C([O-])CC(O)(CC(=O)[O-])C(=O)[O-].[Li+].[Li+].[Li+] [Lithium citrate tribasic tetrahydrate],inactive: 2.37
21,Cc1cc(C)nc(NS(=O)(=O)c2ccc(NC(=S)NC(=O)COc3ccc(Br)cc3Cl)cc2)n1,inactive: 0.295
22,COc1ccc(C(=O)/C=C/c2ccccc2)cc1,inactive: 2

# A few values from the entries so far.
# cell-cell fusion (z-score), Cc1cc(C)nc(NS(=O)(=O)c2ccc(NC(=S)NC(=O)COc3ccc(Br)cc3Cl)cc2)n1 reads inactive: 0.295
# cell-cell fusion (z-score), NCCCC[C@H](N[C@@H](CCc1ccccc1)C(=O)O)C(=O)N1CCC[C@H]1C(=O)O reads inactive: -0.78

# Additional entries follow:

row,Compound,cell-cell fusion (z-score)
1,N[C@@H](CC(=O)N1CCn2c(nnc2C(F)(F)F)C1)Cc1cc(F)c(F)cc1F.O.O=P(O)(O)O,inactive: 2.73
2,CCCCOc1cc(CC2CNC(=O)N2)ccc1OC (centres undefined),inactive: 2.2
3,O=C1C=C2CC3(O)COc4c(ccc(O)c4O)C3=C2C=C1O (centres undefined),inactive: 2.3
4,Cc1scc2c1N(C(=O)CN1CCN(C)CC1)c1ccccc1NC2=O.Cl.Cl [Telenzepine dihydrochloride],inactive: 1.3
5,CCN(CC)CCOC(=O)C1(C2CCCCC2)CCCCC1.Cl [Dicyclomine hydrochloride],inactive: 4.94
6,CCN(CC)CCOC(=O)C1(C2CCCCC2)CCCCC1.Cl,inactive: 2.28
7,CCc1c(Cl)c(O)c(Cl)c(O)c1C(=O)O[C@H]1[C@H](O)[C@H](OC)[C@H](OC/C2=C\C=C\C[C@H](O)/C(C)=C/[C@H](CC)[C@@H](O[C@@H]3OC(C)(C)[C@@H](OC(=O)C(C)C)[C@H](O)[C@@H]3O)/C(C)=C/C(C)=C/C[C@@H]([C@@H](C)O)OC2=O)O[C@@H]1C [Fidaxomicin],inactive: -2.37
8,CC(C)=CCc1c(O)cc2oc(C)cc(=O)c2c1O,inactive: 2.38
9,CS(=O)(=O)N1CCN(Cc2cc3nc(-c4cccc5[nH]ncc45)nc(N4CCOCC4)c3s2)CC1,inactive: 0.587
10,O=C(/C=C/c1ccc(O)cc1)c1ccc(O)cc1O,inactive: 0.988
11,O=C(/C=C/c1ccc(O)cc1)c1ccc(O)cc1O [Isoliquiritigenin],inactive: 0.546
12,CCN(Cc1ccncc1)C(=O)C(CO)c1ccccc1 (centres undefined),inactive: 1.28
13,CCN(Cc1ccncc1)C(=O)C(CO)c1ccccc1 (centres undefined) [Tropicamide],inactive: 1.17
14,COC(=O)[C@H]1[C@H]2C[C@H]3c4[nH]c5cc(OC)ccc5c4CCN3C[C@H]2C[C@@H](OC(=O)c2cc(OC)c(OC)c(OC)c2)[C@@H]1OC,inactive: -1.81
15,C[C@]12CCC3c4ccc(OC(=O)c5ccccc5)cc4CCC3C1CC[C@@H]2O (some centres undefined),inactive: 2.47
16,C[N+](C)(C)CCCCCC[N+](C)(C)C.[Cl-].[Cl-] [Hexamethonium dichloride],inactive: 2.06
17,CCn1nc(C(=O)O)c(=O)c2cc3c(cc21)OCO3 [Cinoxacin],inactive: 1.95
18,CCn1nc(C(=O)O)c(=O)c2cc3c(cc21)OCO3,inactive: 0.284
19,NCCCNCCSP(=O)(O)O [Amifostine],inactive: 1.35
20,Cc1cn([C@@H]2C[C@@H](O)[C@H](CO)O2)c(=O)[nH]c1=O [Telbivudine],inactive: 0.55
